From paper PMC6197744, “Triazolo[4,5-d]pyrimidines as Validated General Control Nonderepressible 2 (GCN2) Protein Kinase Inhibitors Reduce Growth of Leukemia Cells” (Computational and Structural Biotechnology Journal, 2018)

Tested on: NCI-60 cell panel
Assay: NCI COMPARE analysis
Set-up: species or system human
Details: NCI Standard Agents database; for PCC with Maytansine: GI50, high concentration tested 10^–^8.6 M
[1] = high concentration tested 10^–^4.0 M

| SMILES | PCC with Maytansine | PCC with Batracylin [1] | PCC with D-tetrandrine [1] |
| --- | --- | --- | --- |
| CCn1cc(Nc2ncc3nnn(-c4ccc(C(=O)OC)cc4)c3n2)cn1 [Compound 1, Methyl 4-(5-((1-ethyl-1H-pyrazol-4-yl)amino)-3H-[1,2,3]triazolo[4,5-d]pyrimidin-3-yl)benzoate] | 0.519 | 0.488 | – |
| CCOc1ccc(-n2nnc3cnc(Nc4cnn(CC)c4)nc32)cc1 [Compound 2, 3-(4-Ethoxyphenyl)-N-(1-ethyl-1H-pyrazol-4-yl)-3H-[1,2,3]triazolo[4,5-d]pyrimidin-5-amine] | 0.554 | – | 0.488 |
